Our source for the TEAD-luciferase reporter activity values is the supplement of paper PMC10735217.

Structures can show the parent of a compound that is named as a salt. Some of the results follow. Repeats in this data set agree poorly, so a single value says little.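 In a drug-repurposing library screen, luminescence reads luciferase driven by eight TEAD-binding elements, stably integrated into human kidney-derived cells. Compounds scoring over five robust Z scores above the plate mean are called hits.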

The test system of the assay is HEK293A TEAD-LUC reporter. As to the kind of experiment: TEAD-luciferase reporter activity (YAP activation), robust Z score vs plate; higher = stronger YAP/TEAD activation. The conditions noted are these: 24 h. For orientation: A reporter such as luciferase makes a cellular process visible.

In the case of `C=CC(=O)N1C[C@H](Nc2ncnc3[nH]ccc23)CC[C@@H]1C`, the TEAD-luciferase reporter activity by setting is: (compound concentration: 200 nM) inactive: -0.766; (compound concentration: 2 uM) inactive: 0.591; (compound concentration: 10 uM) inactive: 0.0852.
On the same counts, the results for `N[C@@H](CC(=O)N1CCc2c(nc(C(F)(F)F)nc2C(F)(F)F)C1)CN1CC(F)(F)CCC1=O` [Gemigliptin] are inactive: -0.603, inactive: 0.798 and inactive: 0.675.
The like results for `COc1ccc2c(c1)N(c1ccccc1F)C(=O)[C@@]2(CCC(=O)O)NC(=O)c1cc2ccccc2cn1` were, in that order, inactive: -0.716, inactive: -0.0844 and inactive: -0.131.
The like results for `COc1ccccc1N1CCN(CCCNc2ncccc2C(=O)N(C)C)CC1` were, in that order, inactive: -0.655, inactive: -2.08 and inactive: -0.711.
Regarding `Oc1cc(O)c2c(c1)O[C@H](c1ccc(O)c(O)c1)[C@H](O)C2c1c(O)cc(O)c2c1O[C@H](c1ccc(O)c(O)c1)[C@H](O)C2` (single isomer, unassigned; (-)) [[(-)-Epicatechin-(-)-epicatechin]], the TEAD-luciferase reporter activity is inactive: -0.486 (compound concentration: 200 nM), inactive: -1.55 (compound concentration: 2 uM) and inactive: 0.0996 (compound concentration: 10 uM).
The like results for `O=C(O)CC1C=C(c2ccccc2)NO1` (stereo unspecified) were, in that order, inactive: -1.04, inactive: 0.508 and inactive: 2.83.
On the same counts, the results for `O=S(=O)(O)OC1C(O)C(CO)OC(OC2C(CO)OC(OCc3ccccc3)C(O)C2O)C1O` (stereo unspecified) are inactive: -1.63, inactive: -0.689 and inactive: 0.192.
The like results for `CC(=O)Oc1cc2c(s1)CCN(C(C(=O)C1CC1)c1ccccc1F)C2` (stereo unspecified) [prasugrel hydrochloride] were, in that order, inactive: -0.716, inactive: 2.67 and inactive: 1.29.
`Cc1ccc(S(N)(=O)=O)cc1` [P-Toluenesulfonamide]: the TEAD-luciferase reporter activity by setting is: (compound concentration: 200 nM) inactive: -1.69; (compound concentration: 2 uM) inactive: -0.343; (compound concentration: 10 uM) inactive: 0.585.
The like results for `COCC1CN(c2ccc(OCc3cccc(C#N)c3)cc2)C(=O)O1` (stereo unspecified) were, in that order, inactive: 0.0886, inactive: -0.948 and inactive: 0.538.
On the same counts, the results for `COc1ccc(-c2nc(-c3ccccc3F)[nH]c2-c2ccc(OC)cc2)cc1` are inactive: -1.16, inactive: 1.05 and inactive: -0.533.
On the same counts, the results for `Cc1ccc2c(c1CCC(=O)O)CC[C@H](NS(=O)(=O)c1ccc(Cl)cc1)C2` are inactive: -0.376, inactive: -1.79 and inactive: 1.32.
As to `CN(Cc1nc2ccccc2[nH]1)C(=O)c1ccc2c(c1)CN(C)C(=O)[C@H](CC(=O)O)N2`, the TEAD-luciferase reporter activity runs as follows: (compound concentration: 200 nM) inactive: -1.91; (compound concentration: 2 uM) inactive: -2.38; (compound concentration: 10 uM) inactive: -1.55.
On the same counts, the results for `COc1cc(C(=O)O)nc(-c2csc(CCCCCC(C)O)n2)c1OC` (stereo unspecified) are inactive: -1.46, inactive: -0.395 and inactive: -0.201.
Take `COc1ccc2c(c1)c(CC(=O)O)c(C)n2C(=O)c1ccc(N=[N+]=[N-])cc1`: the TEAD-luciferase reporter activity (compound concentration: 200 nM) was inactive: -1.22, the TEAD-luciferase reporter activity (compound concentration: 2 uM) was inactive: -0.523 and the TEAD-luciferase reporter activity (compound concentration: 10 uM) is inactive: -1.42.
On the same counts, the results for `COc1cccc(-c2c(C)n(Cc3c(F)cccc3F)c(=O)n(C[C@H](N)c3ccccc3)c2=O)c1F` are inactive: 0.117, inactive: 0.281 and inactive: -0.784.
The like results for `O=C(NC1CCCCNC1=O)c1cccc(C(F)(F)F)c1` (stereo unspecified) were, in that order, inactive: -1.65, inactive: -1.46 and inactive: -1.47.
On to `O=C1CCCN1C1CCN(Cc2ccc(F)cc2)CC1`, for which the TEAD-luciferase reporter activity was inactive: -0.326 (compound concentration: 200 nM) and inactive: 2.44 (compound concentration: 10 uM).
Take `C[C@@H](CN1CC(=O)NC(=O)C1)N1CC(=O)NC(=O)C1` [razoxane]: the TEAD-luciferase reporter activity is inactive: -1.62 (compound concentration: 200 nM), inactive: -0.819 (compound concentration: 2 uM) and inactive: 1.61 (compound concentration: 10 uM).
The like results for `O=C([O-])CCSC[C@@H]1OC2O[C@@H]3[C@@H](O)[C@H](O)C(O[C@@H]4[C@@H](O)[C@H](O)C(O[C@@H]5[C@@H](O)[C@H](O)C(O[C@@H]6[C@@H](O)[C@H](O)C(O[C@@H]7[C@@H](O)[C@H](O)C(O[C@@H]8[C@@H](O)[C@H](O)C(O[C@@H]9[C@@H](O)[C@H](O)C(O[C@@H]1[C@@H](O)[C@@H]2O)O[C@H]9CSCCC(=O)[O-])O[C@H]8CSCCC(=O)O)O[C@H]7CSCCC(=O)O)O[C@H]6CSCCC(=O)O)O[C@H]5CSCCC(=O)O)O[C@H]4CSCCC(=O)O)O[C@H]3CSCCC(=O)O` [Sugammadex (sodium)] were, in that order, inactive: -0.738, inactive: 0.844 and inactive: -0.852.
As for `O=P(O)(O)C(Cc1ccccn1)P(=O)(O)O` [piridronate sodium], the TEAD-luciferase reporter activity (compound concentration: 200 nM) was inactive: -0.656 and the TEAD-luciferase reporter activity (compound concentration: 10 uM) was inactive: 0.521.
As for `CCN(C/C=C/C#CC(C)(C)C)Cc1cccc(OCC(C)(C)OCc2ccsc2)c1`, the TEAD-luciferase reporter activity was inactive: -0.298 (compound concentration: 200 nM), inactive: 2.97 (compound concentration: 2 uM) and inactive: -0.703 (compound concentration: 10 uM).
On the same counts, the results for `CC(C)Nc1ncccn1` [isaxonine] are inactive: -0.576, inactive: -1.68 and inactive: -0.582.
Regarding `CC(C)[C@@H](CS(=O)(=O)C(C)C)N1C(=O)[C@@](C)(CC(=O)O)C[C@H](c2cccc(Cl)c2)[C@H]1c1ccc(Cl)cc1`, the TEAD-luciferase reporter activity (compound concentration: 200 nM) was inactive: -1.15, the TEAD-luciferase reporter activity (compound concentration: 2 uM) is inactive: -0.582 and the TEAD-luciferase reporter activity (compound concentration: 10 uM) is inactive: 2.7.
On the same counts, the results for `CCCCCC[N+](C)(C)Cc1ccccc1` are inactive: -1.51, inactive: 0.0519 and inactive: -0.982.
`Cc1cc(N)c2cc(NC(=O)Nc3ccc4nc(C)cc(N)c4c3)ccc2n1`: the TEAD-luciferase reporter activity was inactive: -1.03 (compound concentration: 200 nM), inactive: 3.24 (compound concentration: 2 uM) and inactive: 1.7 (compound concentration: 10 uM).
On the same counts, the results for `C=C1CCO[C@]12CC[C@H]1C3CCC4=CC(=O)CCC4=C3[C@@H](c3ccc(C(C)=O)cc3)C[C@@]12C` (stereo partly specified) are inactive: 4.33, inactive: 1.83 and inactive: 0.00851.
The like results for `CN(CC(=O)c1ccc(OCC(=O)O)c(OCC(=O)O)c1)C(=O)c1ccc(C(=N)N)cc1` were, in that order, inactive: -1.14, inactive: 0.366 and inactive: 1.72.
Regarding `Cn1ncc(Cl)c1-c1cc(C(=O)N[C@H](CN)Cc2ccc(F)c(F)c2)oc1Cl` [Uprosertib], the TEAD-luciferase reporter activity was inactive: -1.7 (compound concentration: 200 nM), active: 5 (compound concentration: 2 uM) and active: 6.28 (compound concentration: 10 uM).
On the same counts, the results for `Cc1nc(C)c2c(n1)N(Cc1ccc(-c3ccccc3-c3nn[nH]n3)cc1)C(=O)CC2` [tasosartan] are inactive: -0.0118, inactive: 0.256 and inactive: 0.479.
For `CCCCCCCCCCCCN1CCCCCC1=O` [Laurocapram], the TEAD-luciferase reporter activity was inactive: 0.215 (compound concentration: 200 nM), inactive: 0.768 (compound concentration: 2 uM) and inactive: -0.521 (compound concentration: 10 uM).
